{"source": "PubChem BioAssay AID1347076", "about": "(National Center for Advancing Translational Sciences (NCATS), 2019)", "note": "The whole screen tested about 400,000 compounds, of which about 13,000 (3.2%) were called active. This list was built around the results that the source calls inconclusive (neither active nor inactive); the mix of calls is not that of the screen. Calls follow the shape of the dose curve; as a rule, active = well fitted cell-killing curve with a large enough effect; inconclusive = small, poorly fitted or top-dose-only effect, or effect the other way; inactive = flat fitted curve, though single readings scatter. Potencies beside an inconclusive call are fits to weak or partial responses and may not hold up. % is scaled to controls: 0 for no effect and ±100 for the full control effect; potency is read from the fitted curve at half-maximal effect.", "data": [{"assay": "qHTS assay for MDR1-selective chemotherapeutics: Primary screen using the drug-selected MDR subline cells KB-V1; also: nearly all actives have a fitted effect of over 60% in size", "details": "KB-V1 MDR cells viability, CellTiter-Glo, 72 h; activity change, negative = cytotoxicity: at 46.1 µM (top of the series)", "how_it_was_run": "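Cytotoxicity toward P-gp-expressing KB-V1 cells was determined as loss of CellTiter-Glo luminescence after 72 h at 37 degrees C. Compounds were tested in quantitative HTS format across a concentration range, with curves fitted to normalized data.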", "values": [{"compound": "COc1cccc(CNC(=S)Nc2ccc(Cl)cc2C)c1", "Potency": "inconclusive: 14.6 µM [cytotoxic, partial curve]"}, {"compound": "CCn1c(SCC(=O)NNC(=O)c2ccc(C)cc2)nnc1-c1ccco1", "Potency": "inactive"}, {"compound": "CCCS(=O)(=O)N1CC(=O)N(c2ccc(C)c(Cl)c2)C(C)(C(=O)NC2CCCCCC2)C1", "note": "(stereo not drawn)", "Potency": "inactive"}, {"compound": "Cc1cccc(Nc2nc(N)nc(CN3CCN(c4ccccc4)CC3)n2)c1", "Potency": "active: 14.6 µM"}, {"compound": "Cc1ccc2c(CC(=O)Nc3ccc(S(=O)(=O)N4CCCCC4)cc3)coc2c1C", "Potency": "inconclusive: 29.1 µM [cytotoxic, single point]"}, {"compound": "Cc1cccc(N2CCN(C(=O)Cn3c(-c4cccs4)cc4ccccc43)CC2)c1C", "Potency": "inactive"}, {"compound": "CCc1nc(SCC(=O)Nc2ccc([N+](=O)[O-])cc2)n[nH]1", "Potency": "inconclusive: 29.1 µM [rising, single point]"}, {"compound": "COc1cc(CN(C(=O)c2ccccc2F)C2CCS(=O)(=O)C2)cc(OC)c1OC", "note": "(stereo not drawn)", "Potency": "inactive"}, {"compound": "CC(=O)Nc1cc(-c2cccc(C(=O)N(C)C)c2)cn2c(-c3ccc(C(C)=O)cc3)cnc12", "Potency": "inactive"}, {"compound": "CC(C)(C)c1cc(NC(=O)c2ccc(OC3CCCC3)cc2)no1", "Potency": "active: 16.4 µM"}, {"compound": "COc1ccc(/C(O)=C2/C(=O)C(=O)N(CCCN3CCOCC3)C2c2ccc(C)cc2)cc1", "note": "(stereo not drawn)", "Potency": "inconclusive: 20.6 µM [rising, single point]"}, {"compound": "CCN(CC)S(=O)(=O)c1ccc2[nH]cc(C(=O)NCCC3=CCCCC3)c(=O)c2c1", "Potency": "inactive"}, {"compound": "CN1C(=O)C2(c3ccccc31)N(c1cccc(C(F)(F)F)c1)C(=O)CS2(=O)=O", "note": "(stereo not drawn)", "Potency": "inconclusive: 8.2 µM [rising, partial curve]"}, {"compound": "COC(=O)c1ccc(NC(=O)c2cc(-c3ccccn3)nc3ccccc23)cc1", "Potency": "inactive"}, {"compound": "CN(C1CCCCC1)S(=O)(=O)c1ccc(NC(=O)c2ccco2)cc1", "Potency": "inconclusive: 18.4 µM [cytotoxic, partial curve]"}, {"compound": "Cc1cc(N2CCCC2)ccc1/C=N/n1cnnc1", "Potency": "inconclusive: 11.6 µM [cytotoxic, partial curve, poor fit]"}, {"compound": "Oc1c(C(c2ccc(F)cc2)N2CCN(Cc3ccccc3)CC2)sc2nc(-c3ccco3)nn12", "note": "(stereo not drawn)", "Potency": "inactive"}, {"compound": "N#Cc1cc(C(=O)c2cc(Br)ccc2O)cn(C2CCCCC2)c1=O", "Potency": "inconclusive: 23.1 µM [cytotoxic, single point]"}, {"compound": "C[C@@H]1[C@H](c2ccccc2)OCCS(=O)(=O)N1Cc1ccc(Cl)cc1", "Potency": "active: 11.6 µM"}, {"compound": "Fc1ccccc1NC(=S)Nc1cccc2cnccc12", "Potency": "active: 23.1 µM"}, {"compound": "Cn1ncc(Cl)c1C(=O)N1CCN(c2cccc(Cl)c2)CC1", "Potency": "inconclusive: 16.4 µM [cytotoxic, partial curve]"}, {"compound": "CC(C)(C)c1ccc(OCCC(=O)OCC(=O)NC2CC2)cc1", "Potency": "inconclusive: 29.1 µM [rising, single point]"}, {"compound": "Cc1ccc(S(=O)(=O)N2CCCOC2)cc1", "Potency": "inactive"}, {"compound": "CCOc1ccc2nc(NC(=O)c3cccc(-c4cc5ccccc5oc4=O)c3)sc2c1", "Potency": "inconclusive: 20.6 µM [cytotoxic, single point]"}, {"compound": "COc1ccc(Nc2nn3c(=O)c4cc5c(cc4nc3s2)OCO5)c(OC)c1", "Potency": "inactive"}, {"compound": "CN(C)CCNCc1ccc(OC2CCCC2)cc1", "Potency": "inconclusive: 29.1 µM [cytotoxic, single point]"}, {"compound": "CC1(C)N=C(SCC(=O)Nc2ccc(Cl)cc2Cl)C(c2ccccc2)=N1", "Potency": "active: 20.6 µM"}, {"compound": "O=C(Nc1c[nH]c(=O)[nH]c1=O)OCc1ccccc1", "Potency": "inconclusive: 25.9 µM [cytotoxic, single point]"}, {"compound": "C=CCn1c(CC(=O)OC)csc1=Nc1ccc(C(C)=O)cc1", "Potency": "inconclusive: 29.1 µM [cytotoxic, single point]"}, {"compound": "O=C(NCCOc1ccccc1)c1ccc2n[nH]nc2c1", "Potency": "inconclusive: 18.4 µM [rising, single point]"}, {"compound": "CC1CCCCC1NC(=O)/C(C#N)=C/C=C/c1ccccc1[N+](=O)[O-]", "note": "(stereo not drawn)", "Potency": "inconclusive: 18.4 µM [cytotoxic, single point]"}, {"compound": "COc1ccccc1CNC(=O)CN(c1ccc(C)cc1)S(=O)(=O)c1c(C)nn(C)c1C", "Potency": "inconclusive: 7.31 µM [cytotoxic, partial curve]"}, {"compound": "COc1ccc(CN2CCC[C@]3(N[C@H](c4ccc(C(F)(F)F)cc4)[C@@H]4C(=O)N(C)C(=O)[C@@H]43)C2=O)cc1", "Potency": "inactive"}, {"compound": "CC1(C)OC(C)(C)/C(=C\\c2ccc(OCC(N)=O)cc2)C1=O", "Potency": "inconclusive: 29.1 µM [rising, single point]"}, {"compound": "CNS(=O)(=O)c1ccc2c(c1)C(=O)c1cc(S(=O)(=O)NC)ccc1CC2", "Potency": "inconclusive: 29.1 µM [rising, partial curve, poor fit]"}, {"compound": "COCCOC(=O)C1=C(C)NC(=S)NC1c1cccs1", "note": "(stereo not drawn)", "Potency": "inconclusive: 14.6 µM [rising, partial curve, poor fit]"}, {"compound": "Cc1ccnc(NC(=S)NC(=O)/C=C/c2ccc(Cl)cc2)c1", "Potency": "inactive"}, {"compound": "COc1ccccc1-c1csc(C(O)c2ccc(F)cc2)n1", "note": "(stereo not drawn)", "Potency": "inactive"}, {"compound": "CCOc1ccc(C(=O)NC(=S)NCc2cccnc2)cc1[N+](=O)[O-]", "Potency": "inactive"}, {"compound": "CC(C)Cn1c(-c2ccc(Cl)cc2)cnc1SCC(=O)N1CCOCC1", "Potency": "inconclusive: 29.1 µM [cytotoxic, single point]"}, {"compound": "C[n+]1ccc(/C=C/c2ccc3c(c2)OCO3)c2ccccc21", "Potency": "inactive"}, {"compound": "CC(C)c1ccc(NC(=O)C2C3C=CC4(CN(Cc5cccnc5)C(=O)C24)O3)cc1", "note": "(stereo not drawn)", "Potency": "inconclusive: 23.1 µM [rising, single point]"}, {"compound": "CCCc1cc(=O)[nH]c(SCC(=O)N(CC)C2CCS(=O)(=O)C2)n1", "note": "(stereo not drawn)", "Potency": "inactive"}, {"compound": "CC(=O)NC1=NN(C(C)=O)C(C)(c2ccc(Br)cc2)S1", "note": "(stereo not drawn)", "Potency": "inactive"}, {"compound": "Cc1ccc(C(=O)Nc2nc(=O)n(C(=O)c3ccccc3C)s2)cc1", "Potency": "inactive"}, {"compound": "CCc1ccc(C2c3c(-c4ccccc4O)n[nH]c3C(=O)N2Cc2cccnc2)cc1", "note": "(stereo not drawn)", "activity change, negative = cytotoxicity": "inconclusive: -10.6%"}, {"compound": "Cc1ccc(S(=O)(=O)Nc2ccccc2CNc2cccc(C)n2)cc1", "Potency": "active: 5.8 µM"}, {"compound": "CC(C)OC(=O)C1C(=O)CC(C)(O)C(C(=O)OC(C)C)C1c1ccc([N+](=O)[O-])cc1", "note": "(stereo not drawn)", "Potency": "inconclusive: 11.6 µM [cytotoxic, partial curve]"}]}]}
